The text below walks through data of PMC4447969.

These are yes or no findings as the source states them, for the method shown. In cells and extracts the contact can be indirect. Some results given as binding are weak or reduced against the parent protein; the word gives no strength. Tags and fused reporters may be left off the sequences shown.

Sequences and labels used below:
B1: IBtkα-FLAG (human inhibitor of Bruton's tyrosine kinase isoform α, aa 1–1352) (protein, UniProt Q9P2D0-1 1-1352)
chain: MSSPMPDCTSKCRSLKHALDVLSVVTKGSENQIKAFLSSHCYNAATIKDVFGRNALHLVSSCGKKGVLDWLIQKGVDLLVKDKESGWTALHRSIFYGHIDCVWSLLKHGVSLYIQDKEGLSALDLVMKDRPTHVVFKNTDPTDVYTWGDNTNFTLGHGSQNSKHHPELVDLFSRSGIYIKQVVLCKFHSVFLSQKGQVYTCGHGPGGRLGHGDEQTCLVPRLVEGLNGHNCSQVAAAKDHTVVLTEDGCVYTFGLNIFHQLGIIPPPSSCNVPRQIQAKYLKGRTIIGVAAGRFHTVLWTREAVYTMGLNGGQLGCLLDPNGEKCVTAPRQVSALHHKDIALSLVAASDGATVCVTTRGDIYLLADYQCKKMASKQLNLKKVLVSGGHMEYKVDPEHLKENGGQKICILAMDGAGRVFCWRSVNSSLKQCRWAYPRQVFISDIALNRNEILFVTQDGEGFRGRWFEEKRKSSEKKEILSNLHNSSSDVSYVSDINSVYERIRLEKLTFAHRAVSVSTDPSGCNFAILQSDPKTSLYEIPAVSSSSFFEEFGKLLREADEMDSIHDVTFQVGNRLFPAHKYILAVHSDFFQKLFLSDGNTSEFTDIYQKDEDSAGCHLFVVEKVHPDMFEYLLQFIYTDTCDFLTHGFKPRIHLNKNPEEYQGTLNSHLNKVNFHEDDNQKSAFEVYKSNQAQTVSERQKSKPKSCKKGKNIREDDPVRMLQTVAKKFDFSNLSSRLDGVRFENEKINVIAKNTGNKLKLSQKKCSFLCDVTMKSVDGKEFPCHKCVLCARLEYFHSMLSSSWIEASSCAALEMPIHSDILKVILDYLYTDEAVVIKESQNVDFICSVLVVADQLLITRLKEICEVALTEKLTLKNAAMLLEFAAMYSAKQLKLSCLQFIGLNMAALLEARSLDVLSDGVLKDLSEFYRKMIPAMDRRVITPYQDGPDISYLEVEDGDIFLKEEINMEQNHSETMFKKAKTKAKKKPRKRSDSSGGYNLSDIIQSPSSTGLLKSGKTNSVESLPELLTSDSEGSYAGVGSPRDLQSPDFTTGFHSDKIEAKVKPYVNGTSPVYSREDLKPWEKSPILKISAPQPIPSNRIDTTSSASWVAGSFSPVSPPVVDLRTIMEIEESRQKCGATPKSHLGKTVSHGVKLSQKQRKMIALTTKENNSGMNSMETVLFTPSKAPKPVNAWASSLHSVSSKSFRDFLLEEKKSVTSHSSGDHVKKVSFKGIENSQAPKIVRCSTHGTPGPEGNHISDLPLLDSPNPWLSSSVTAPSMVAPVTFASIVEEELQQEAALIRSREKPLALIQIEEHAIQDLLVFYEAFGNPEEFVIVERTPQGPLAVPMWNKHG
B2: IBtkαΔN-FLAG (aa 307–1352) (domain or fragment, UniProt Q9P2D0 307-1352)
chain: MGLNGGQLGCLLDPNGEKCVTAPRQVSALHHKDIALSLVAASDGATVCVTTRGDIYLLADYQCKKMASKQLNLKKVLVSGGHMEYKVDPEHLKENGGQKICILAMDGAGRVFCWRSVNSSLKQCRWAYPRQVFISDIALNRNEILFVTQDGEGFRGRWFEEKRKSSEKKEILSNLHNSSSDVSYVSDINSVYERIRLEKLTFAHRAVSVSTDPSGCNFAILQSDPKTSLYEIPAVSSSSFFEEFGKLLREADEMDSIHDVTFQVGNRLFPAHKYILAVHSDFFQKLFLSDGNTSEFTDIYQKDEDSAGCHLFVVEKVHPDMFEYLLQFIYTDTCDFLTHGFKPRIHLNKNPEEYQGTLNSHLNKVNFHEDDNQKSAFEVYKSNQAQTVSERQKSKPKSCKKGKNIREDDPVRMLQTVAKKFDFSNLSSRLDGVRFENEKINVIAKNTGNKLKLSQKKCSFLCDVTMKSVDGKEFPCHKCVLCARLEYFHSMLSSSWIEASSCAALEMPIHSDILKVILDYLYTDEAVVIKESQNVDFICSVLVVADQLLITRLKEICEVALTEKLTLKNAAMLLEFAAMYSAKQLKLSCLQFIGLNMAALLEARSLDVLSDGVLKDLSEFYRKMIPAMDRRVITPYQDGPDISYLEVEDGDIFLKEEINMEQNHSETMFKKAKTKAKKKPRKRSDSSGGYNLSDIIQSPSSTGLLKSGKTNSVESLPELLTSDSEGSYAGVGSPRDLQSPDFTTGFHSDKIEAKVKPYVNGTSPVYSREDLKPWEKSPILKISAPQPIPSNRIDTTSSASWVAGSFSPVSPPVVDLRTIMEIEESRQKCGATPKSHLGKTVSHGVKLSQKQRKMIALTTKENNSGMNSMETVLFTPSKAPKPVNAWASSLHSVSSKSFRDFLLEEKKSVTSHSSGDHVKKVSFKGIENSQAPKIVRCSTHGTPGPEGNHISDLPLLDSPNPWLSSSVTAPSMVAPVTFASIVEEELQQEAALIRSREKPLALIQIEEHAIQDLLVFYEAFGNPEEFVIVERTPQGPLAVPMWNKHG
B3: IBtkαΔBTB-FLAG (deletion of aa 564–836) (protein, UniProt Q9P2D0)
chain: MSSPMPDCTSKCRSLKHALDVLSVVTKGSENQIKAFLSSHCYNAATIKDVFGRNALHLVSSCGKKGVLDWLIQKGVDLLVKDKESGWTALHRSIFYGHIDCVWSLLKHGVSLYIQDKEGLSALDLVMKDRPTHVVFKNTDPTDVYTWGDNTNFTLGHGSQNSKHHPELVDLFSRSGIYIKQVVLCKFHSVFLSQKGQVYTCGHGPGGRLGHGDEQTCLVPRLVEGLNGHNCSQVAAAKDHTVVLTEDGCVYTFGLNIFHQLGIIPPPSSCNVPRQIQAKYLKGRTIIGVAAGRFHTVLWTREAVYTMGLNGGQLGCLLDPNGEKCVTAPRQVSALHHKDIALSLVAASDGATVCVTTRGDIYLLADYQCKKMASKQLNLKKVLVSGGHMEYKVDPEHLKENGGQKICILAMDGAGRVFCWRSVNSSLKQCRWAYPRQVFISDIALNRNEILFVTQDGEGFRGRWFEEKRKSSEKKEILSNLHNSSSDVSYVSDINSVYERIRLEKLTFAHRAVSVSTDPSGCNFAILQSDPKTSLYEIPAVSSSSFFEEFGKLLREADEMDSIESQNVDFICSVLVVADQLLITRLKEICEVALTEKLTLKNAAMLLEFAAMYSAKQLKLSCLQFIGLNMAALLEARSLDVLSDGVLKDLSEFYRKMIPAMDRRVITPYQDGPDISYLEVEDGDIFLKEEINMEQNHSETMFKKAKTKAKKKPRKRSDSSGGYNLSDIIQSPSSTGLLKSGKTNSVESLPELLTSDSEGSYAGVGSPRDLQSPDFTTGFHSDKIEAKVKPYVNGTSPVYSREDLKPWEKSPILKISAPQPIPSNRIDTTSSASWVAGSFSPVSPPVVDLRTIMEIEESRQKCGATPKSHLGKTVSHGVKLSQKQRKMIALTTKENNSGMNSMETVLFTPSKAPKPVNAWASSLHSVSSKSFRDFLLEEKKSVTSHSSGDHVKKVSFKGIENSQAPKIVRCSTHGTPGPEGNHISDLPLLDSPNPWLSSSVTAPSMVAPVTFASIVEEELQQEAALIRSREKPLALIQIEEHAIQDLLVFYEAFGNPEEFVIVERTPQGPLAVPMWNKHG
B4: IBtkαΔC-FLAG (aa 1–890) (domain or fragment, UniProt Q9P2D0 1-890)
chain: MSSPMPDCTSKCRSLKHALDVLSVVTKGSENQIKAFLSSHCYNAATIKDVFGRNALHLVSSCGKKGVLDWLIQKGVDLLVKDKESGWTALHRSIFYGHIDCVWSLLKHGVSLYIQDKEGLSALDLVMKDRPTHVVFKNTDPTDVYTWGDNTNFTLGHGSQNSKHHPELVDLFSRSGIYIKQVVLCKFHSVFLSQKGQVYTCGHGPGGRLGHGDEQTCLVPRLVEGLNGHNCSQVAAAKDHTVVLTEDGCVYTFGLNIFHQLGIIPPPSSCNVPRQIQAKYLKGRTIIGVAAGRFHTVLWTREAVYTMGLNGGQLGCLLDPNGEKCVTAPRQVSALHHKDIALSLVAASDGATVCVTTRGDIYLLADYQCKKMASKQLNLKKVLVSGGHMEYKVDPEHLKENGGQKICILAMDGAGRVFCWRSVNSSLKQCRWAYPRQVFISDIALNRNEILFVTQDGEGFRGRWFEEKRKSSEKKEILSNLHNSSSDVSYVSDINSVYERIRLEKLTFAHRAVSVSTDPSGCNFAILQSDPKTSLYEIPAVSSSSFFEEFGKLLREADEMDSIHDVTFQVGNRLFPAHKYILAVHSDFFQKLFLSDGNTSEFTDIYQKDEDSAGCHLFVVEKVHPDMFEYLLQFIYTDTCDFLTHGFKPRIHLNKNPEEYQGTLNSHLNKVNFHEDDNQKSAFEVYKSNQAQTVSERQKSKPKSCKKGKNIREDDPVRMLQTVAKKFDFSNLSSRLDGVRFENEKINVIAKNTGNKLKLSQKKCSFLCDVTMKSVDGKEFPCHKCVLCARLEYFHSMLSSSWIEASSCAALEMPIHSDILKVILDYLYTDEAVVIKESQNVDFICSVLVVADQLLITRLKEICEVALTEKLTLKNAAMLLEFAAMYSAKQ

This assay concerns the target T1, GST-Pdcd4-WT (UniProt Q53EL6).
T1 sequence: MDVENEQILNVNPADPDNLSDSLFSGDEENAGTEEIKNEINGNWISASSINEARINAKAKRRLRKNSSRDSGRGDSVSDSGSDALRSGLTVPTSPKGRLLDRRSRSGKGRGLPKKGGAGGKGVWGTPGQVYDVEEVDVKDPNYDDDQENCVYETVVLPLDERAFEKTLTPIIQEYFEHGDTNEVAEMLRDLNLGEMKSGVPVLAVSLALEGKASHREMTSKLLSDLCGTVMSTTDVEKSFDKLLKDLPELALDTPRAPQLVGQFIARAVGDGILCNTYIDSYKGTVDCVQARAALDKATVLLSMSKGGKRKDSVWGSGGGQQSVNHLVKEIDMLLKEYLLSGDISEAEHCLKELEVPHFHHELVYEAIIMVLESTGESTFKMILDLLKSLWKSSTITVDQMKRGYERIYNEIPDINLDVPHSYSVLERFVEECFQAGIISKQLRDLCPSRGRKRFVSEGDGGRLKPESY
The experiment in a line: pull-down; lysate (1 mg, RIPA buffer) of HEK293T cells transfected with IBtkα-FLAG or mutants incubated 1 h at 4 °C with GST or GST-Pdcd4 proteins, then glutathione-Sepharose beads 1 h at 4 °C, three washes with RIPA buffer, Western blot with anti-FLAG; only the target purified. Background: Immunoblotting shows a protein as a band on a membrane.
On to B1, for which the binding result is listed as “binds”.
Then B2, with “binds”.
Then B3, with “binds”; and B4, with “no binding”.
